Values joined by “and” are separate entries in the source; they are usually repeats but may differ in a detail not shown here. Identical values can stand only once. The list shows a part of the results. This data set is noisy: repeats of one test often differ as much as different tests do.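 HEK293T cells were given each compound shortly before transfection with a reporter in which red mCherry is followed by the SARS-CoV-2 frameshift element and then GFP in the −1 frame, so GFP appears only after frameshifting.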

In the assay the test system is HEK293T. In words: percent viability (nuclei count) relative to control; higher = more viable cells. As to conditions: 10 µM; 24 h.
On to `Cc1cc2c(OCC(CNC(C)(C)C)OC(=O)c3ccccc3)cccc2[nH]1` (stereo unspecified) [bopindolol], for which the percent viability was 188%.

On to `CCN(CC)C(=O)N1CCN(C)CC1` [diethylcarbamazine], for which the percent viability was 183%.

Turning to `COc1cccc(CCc2ccccc2OCC(CN(C)C)OC(=O)CCC(=O)O)c1` (stereo unspecified) [sarpogrelate], the percent viability turned out to be 308%.

In the case of `Cc1ccccc1C(=O)Nc1ccc(C(=O)N2CCCC(N(C)C)c3ccccc32)cc1` (stereo unspecified) [mozavaptan], the percent viability stood at 22.7%.

In the case of `COc1cc(Cl)nc(OC)n1`, the percent viability stood at 197%.

With `CC(C)NCC(O)COc1ccc(CCOCC2CC2)cc1` (stereo unspecified), the percent viability worked out at 173%.

Turning to `CC[N+]1(CC)CCC(=C(c2ccccc2)c2ccccc2)C1C` (stereo unspecified) [prifinium bromide], the percent viability is 176%.

For `CN1[C@@H](CC(=O)c2ccccc2)CCC[C@H]1C[C@H](O)c1ccccc1` [lobeline], the percent viability is 212% and 198%.

Regarding `COc1ccc(CC2c3cc(OC)c(OC)cc3CC[N+]2(C)CCC(=O)OCCCCCOC(=O)CC[N+]2(C)CCc3cc(OC)c(OC)cc3C2Cc2ccc(OC)c(OC)c2)cc1OC` (stereo unspecified) [atracurium besilate], the percent viability is 219% and 346%.

Turning to `O=C(O)COc1ccc(C(=O)/C=C/c2ccc(C(=O)O)cc2)cc1` [cinfenoac], the percent viability was found to be 109%.

Take `Nc1ncnc(Nc2ccc(Cl)cc2)n1`: the percent viability came out at 399%.

With `CCCN(CC)C(CC)C(=O)Nc1c(C)cccc1C` (stereo unspecified) [Etidocaine], the percent viability turned out to be 237%.

For `CCCCC[C@](C)(O)/C=C/[C@@H]1[C@@H](C/C=C\CCCC(=O)O)[C@@H](O)C[C@H]1O` [Carboprost Tromethamine], the percent viability was determined as 190%.

Take `NCCNCCNCCN`: the percent viability is 360%.

Regarding `CC(=O)O[C@H]1C[C@@H]2CC[C@@H]3[C@H](CC[C@@]4(C)[C@H]3C[C@H]([N+]3(C)CCCCC3)[C@@H]4OC(C)=O)[C@@]2(C)C[C@@H]1N1CCCCC1` [vecuronium bromide], the percent viability is 168% and 243%.

`CC(C[N+](C)(C)C)OC(N)=O` (stereo unspecified): the percent viability amounted to 295%.

On to `C[C@@H]1C[C@H]2[C@@H]3C[C@H](F)C4=CC(=O)C=C[C@]4(C)[C@H]3[C@@H](O)C[C@]2(C)[C@@]1(O)C(=O)CO` [Paramethasone], for which the percent viability is 201%.

For `CCC(C(=O)OCCN(CC)CC)c1ccccc1` (stereo unspecified) [butetamate], the percent viability worked out at 221%.

As for `CC1=C(/C=C/C(C)=C/C=C/C(C)=C/C=C/C=C(C)/C=C/C=C(C)/C=C/C2=C(C)C(=O)CCC2(C)C)C(C)(C)CCC1=O` [Canthaxanthin], the percent viability was determined as 322%.

As for `Cc1ccsc1/C=C/C1=NCCCN1C` [morantel], the percent viability stood at 342%.

As for `C(=C\c1ccccc1)/CN1CCN(C(c2ccccc2)c2ccccc2)CC1` [Stugeron], the percent viability was determined as 140%.

Regarding `CN(C)CCn1cnc2c1c(=O)n(C)c(=O)n2C` [dimethazan], the percent viability turned out to be 128%.

Turning to `N[C@@H](CCC(=O)O)C(=O)N[C@@H](Cc1c[nH]c2ccccc12)C(=O)O` [oglufanide], the percent viability came to 234%.

For the compound `O/N=C/c1cc[n+](CCC[n+]2ccc(/C=N/O)cc2)cc1` [trimedoxime bromide], the percent viability is 118%.

With `COc1cc2nc(N3CCN(C(=O)C4CCCO4)CC3)nc(N)c2cc1OC` (stereo unspecified), the percent viability is 232%.

As to `C=CC[N+]1([C@H]2C[C@H]3[C@@H]4CC[C@H]5C[C@H](O)[C@@H](N6CCOCC6)C[C@]5(C)[C@H]4CC[C@]3(C)[C@H]2OC(C)=O)CCCC1` [rocuronium bromide], the percent viability is 107%.

As to `CC(C)=CCC[C@](C)(O)[C@@H]1CC=C(C)CC1` [levomenol], the percent viability stood at 97.7%.

`[O-][n+]1cccc(CO)c1` [mepiroxol]: the percent viability was determined as 286%.

For `CO[C@H]1C[C@H](O[C@@H]2/C(C)=C/C[C@@H]3C[C@@H](C[C@]4(CC[C@H](C)[C@@H](C5CCCCC5)O4)O3)OC(=O)[C@@H]3C=C(C)/C(=N/O)[C@H]4OC/C(=C\C=C\[C@@H]2C)[C@]43O)O[C@@H](C)[C@@H]1O` [selamectin], the percent viability was determined as 70.4%.

With `CNC(=O)[C@H](Cc1c[nH]c2ccccc12)NC(=O)[C@@H](CC(=O)NO)CC(C)C` [ilomastat], the percent viability turned out to be 284%.

For the compound `O=C(O)c1ccc(S(=O)(=O)N(Cl)Cl)cc1` [halazone], the percent viability came to 167%.

Turning to `CCCCOC(=O)c1ccc(O)cc1`, the percent viability was found to be 179%.

Regarding `COc1ccc(/C=N/NC(=O)c2ccncc2)cc1OC` [verazide], the percent viability was 127%.

For the compound `Cn1c(=O)c2c(ncn2C)n(C)c1=O` [Caffeine], the percent viability stood at 382%.

Turning to `CCN1CC(CCN2CCOCC2)C(c2ccccc2)(c2ccccc2)C1=O` (stereo unspecified) [doxapram], the percent viability amounted to 82.5%.

Turning to `CC(=O)[C@@]1(O)[C@H](O)C[C@H]2[C@@H]3CCC4=CC(=O)CC[C@]4(C)[C@H]3CC[C@@]21C` [algestone], the percent viability was 147%.

The values above are taken from the supplement of paper PMC8256030.
